Data as given in PubChem BioAssay AID1224826 (NIAID, 2016)

Purpose: 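Genes that change LPS-induced Tnf promoter activity in mouse macrophages when knocked down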 (primary screen)
System: RAW264.7 G9 macrophages from mouse bearing reporters for p65 (GFP) and the Tnf promoter (mCherry)
Knock-down reagent: siRNA pool against mouse genes, 100 nM
Timing: 16 h of LPS stimulation, after 2 days of siRNA transfection
Conditions: bacterial lipopolysaccharide (Salmonella minnesota R595), 10 ng/ml
Detection: 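Nuclear mCherry signal of the Tnf promoter reporter measured by imaging after background removal, scaled to each plate median and turned into robust z-scores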
Direction: Tnf reporter robust z-score: higher = stronger Tnf promoter reporter signal after LPS
Rule for the call: 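a well counts as active at a score of -1.3 or below (Tlr4 knock-down control median) or above 3 (raised signal); controls and wells holding fewer than 50 cells are excluded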
Calls: active = Tnf reporter clearly lowered or raised; inactive = no clear change in Tnf reporter
In all, the deposit lists about 17,000 reagents; shown is an unselected part. About 1,110 of them (6.6%) were called active. 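Active means lowered or raised reporter signal; replicate intensities are raw and not normalised per plate.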 Further read-outs or replicates are left out here.

For Rpl13a, what was measured?
Tnf reporter robust z-score: -1.25; fewer than 50 cells in well: enough cells in well; Outcome: inactive

For Fxyd2, what was measured?
Tnf reporter robust z-score: -0.22; fewer than 50 cells in well: enough cells in well; Outcome: inactive

What did the screen give for Colec10?
Tnf reporter robust z-score: 0.61; fewer than 50 cells in well: enough cells in well; Outcome: inactive

For Unc5b, how do the results read?
Tnf reporter robust z-score: 0.26; fewer than 50 cells in well: enough cells in well; Outcome: inactive

With Rbm12b1, what does the deposit list?
Tnf reporter robust z-score: 0.75; fewer than 50 cells in well: enough cells in well; Outcome: inactive

What did the screen give for Srms?
fewer than 50 cells in well: fewer than 50 cells per well; well left out of calls; Outcome: inactive

For Atg7, what does the deposit list?
Tnf reporter robust z-score: 1.02; fewer than 50 cells in well: enough cells in well; Outcome: inactive

How did the screen score Map3k12?
Tnf reporter robust z-score: -1.63; fewer than 50 cells in well: enough cells in well; Outcome: active

For 2310022B05Rik, what was measured?
fewer than 50 cells in well: fewer than 50 cells per well; well left out of calls; Outcome: inactive

With Rsph3a, how do the results read?
fewer than 50 cells in well: fewer than 50 cells per well; well left out of calls; Outcome: inactive

What did the screen give for Nanos2?
Tnf reporter robust z-score: -0.94; fewer than 50 cells in well: enough cells in well; Outcome: inactive

How did the screen score Plod1?
Tnf reporter robust z-score: -0.21; fewer than 50 cells in well: enough cells in well; Outcome: inactive

Targets above whose gene name starts with R or r (3):
Rpl13a: Tnf reporter robust z-score = -1.25; fewer than 50 cells in well = enough cells in well; Outcome = inactive
Rbm12b1: Tnf reporter robust z-score = 0.75; fewer than 50 cells in well = enough cells in well; Outcome = inactive
Rsph3a: fewer than 50 cells in well = fewer than 50 cells per well; well left out of calls; Outcome = inactive

The list goes on:
With Gpr63, what was measured?
Tnf reporter robust z-score: 0.66; fewer than 50 cells in well: enough cells in well; Outcome: inactive

What is on record for Tmem98?
fewer than 50 cells in well: fewer than 50 cells per well; well left out of calls; Outcome: inactive

For Atad3a, what was measured?
Tnf reporter robust z-score: -1.18; fewer than 50 cells in well: enough cells in well; Outcome: inactive

For Btn2a2, how do the results read?
Tnf reporter robust z-score: 3.13; fewer than 50 cells in well: enough cells in well; Outcome: active

With Anapc15, what was measured?
fewer than 50 cells in well: fewer than 50 cells per well; well left out of calls; Outcome: inactive

What is on record for Naaa?
Tnf reporter robust z-score: -0.16; fewer than 50 cells in well: enough cells in well; Outcome: inactive

What did the screen give for Grid2?
Tnf reporter robust z-score: 1.8; fewer than 50 cells in well: enough cells in well; Outcome: inactive

How did the screen score Mrc2?
Tnf reporter robust z-score: 0.09; fewer than 50 cells in well: enough cells in well; Outcome: inactive

For Zmat1, what was measured?
Tnf reporter robust z-score: -0.06; fewer than 50 cells in well: enough cells in well; Outcome: inactive
